Results as given in patent publication US6846911.
No constants are given. Whether binding was seen depends on the method and setting. In cells and extracts the contact can be indirect. Some entries that bind do so weakly or less than the wild type.

T1: CD97 β subunit (human) (UniProt P48960)
T1 sequence: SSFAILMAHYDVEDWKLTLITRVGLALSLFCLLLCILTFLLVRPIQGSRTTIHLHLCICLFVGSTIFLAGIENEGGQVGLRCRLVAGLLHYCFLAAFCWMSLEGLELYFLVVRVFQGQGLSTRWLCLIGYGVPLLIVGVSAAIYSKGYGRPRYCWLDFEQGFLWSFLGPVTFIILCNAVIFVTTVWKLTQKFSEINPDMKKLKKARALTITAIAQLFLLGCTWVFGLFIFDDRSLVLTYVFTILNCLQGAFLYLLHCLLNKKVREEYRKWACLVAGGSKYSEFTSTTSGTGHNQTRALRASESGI


Experiments:
[1] = biological target: T1, CD97 β subunit (human); assay: co-immunoprecipitation
[2] = biological target: T1, CD97 β subunit (human); assay: co-immunoprecipitation; told in words
[3] = biological target: T1, CD97 β subunit (human); assay: co-immunoprecipitation, nondenaturing conditions

| binding [1] | binding [2] | binding [3] | Molecule |
| --- | --- | --- | --- |
| binds | binds | – | CD97 α subunit (isoforms not distinguished) (from UniProt P48960 21-530) (receptor) |
| – | – | binds | CD97 α3 subunit (receptor, human, UniProt P48960-2 21-437, looked up) QDSRGCARWCPQNSSCVNATACRCNPGFSSFSEIITTPTETCDDINECATPSKVSCGKFSDCWNTEGSYDCVCSPGYEPVSGAKTFKNESENTCQDVDECSSGQHQCDSSTVCFNTVGSYSCRCRPGWKPRHGIPNNQKDTVCEDMTFSTWTPPPGVHSQTLSRFFDKVQDLGRDSKTSSAEVTIQNVIKLVDELMEAPGDVEALAPPVRHLIATQLLSNLEDIMRILAKSLPKGPFTYISPSNTELTLMIQERGDKNVTMGQSSARMKLNWAVAAGAEDPGPAVAGILSIQNMTTLLANASLNLHSKKQAELEEIYESSIRGVQLRRLSAVNSIFLSHNNTKELNSPILFAFSHLESSDGEAGRDPPAKDVMPGPRQELLCAFWKSDSDRGGHWATEGCQVLGSKNGSTTCQCSHL |
